Literature values in US20230255986A1, “PHARMACEUTICAL COMPOSITIONS FOR TREATING INFECTIONS BY A NEUROTROPIC VIRUS” (priority 2020, published 2023).
For at least one compound, name, drawing or mass did not settle the structure.

Experiments:
SARS-CoV-2 [1] = details: in vivo; cited from earlier work
SARS-CoV-2 [2] = details: in vivo; cited from earlier work; remark: listed apart in the source

## CCC(CC)COC(=O)[C@H](C)N[P@](=O)(OC[C@H]1O[C@@](C#N)(c2ccc3c(N)ncnn23)[C@H](O)[C@@H]1O)Oc1ccccc1 [Remdesivir]
SARS-CoV-2 [1]
  time to clinical improvement: not associated with a difference in time to clinical improvement
SARS-CoV-2 [2]
  faster time to recovery than placebo: 31%
  median time to recovery: 11 days
  mortality rate: 8.0%
